For this assay, the target named is T1, YFP-TRF (YFP-tagged T. brucei TRF telomere repeat binding protein) (T. brucei (Lister 427)) (UniProt Q4VHG6).
T1 sequence: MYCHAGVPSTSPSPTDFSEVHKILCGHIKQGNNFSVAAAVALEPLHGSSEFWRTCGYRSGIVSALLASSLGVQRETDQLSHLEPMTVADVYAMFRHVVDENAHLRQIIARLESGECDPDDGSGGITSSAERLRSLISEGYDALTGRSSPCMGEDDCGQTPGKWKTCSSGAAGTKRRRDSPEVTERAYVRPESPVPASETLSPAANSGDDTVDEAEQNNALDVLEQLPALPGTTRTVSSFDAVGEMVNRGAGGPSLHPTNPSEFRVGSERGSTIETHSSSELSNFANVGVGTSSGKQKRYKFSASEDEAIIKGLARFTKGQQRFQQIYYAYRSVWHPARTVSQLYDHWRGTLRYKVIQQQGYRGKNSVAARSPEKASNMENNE
The experiment in a line: affinity purification with mass spectrometry; YFP-tagged bait captured on beads cross-linked to mouse anti-GFP antibody (Roche) from the soluble fraction of briefly sonicated lysate of 3.5x10^8 cells; 0.2% NP-40, 150 mM KCl; 1 hr at 4°C; three washes with lysis buffer; LC-MS/MS, enrichment relative to the No-YFP tag control; three biological replicates.

Sequences of proteins named here, by UniProt entry; tags and fusion partners are left off. A change or cut given only in a name is not applied to a line headed by its entry.
UniProt Q586J9: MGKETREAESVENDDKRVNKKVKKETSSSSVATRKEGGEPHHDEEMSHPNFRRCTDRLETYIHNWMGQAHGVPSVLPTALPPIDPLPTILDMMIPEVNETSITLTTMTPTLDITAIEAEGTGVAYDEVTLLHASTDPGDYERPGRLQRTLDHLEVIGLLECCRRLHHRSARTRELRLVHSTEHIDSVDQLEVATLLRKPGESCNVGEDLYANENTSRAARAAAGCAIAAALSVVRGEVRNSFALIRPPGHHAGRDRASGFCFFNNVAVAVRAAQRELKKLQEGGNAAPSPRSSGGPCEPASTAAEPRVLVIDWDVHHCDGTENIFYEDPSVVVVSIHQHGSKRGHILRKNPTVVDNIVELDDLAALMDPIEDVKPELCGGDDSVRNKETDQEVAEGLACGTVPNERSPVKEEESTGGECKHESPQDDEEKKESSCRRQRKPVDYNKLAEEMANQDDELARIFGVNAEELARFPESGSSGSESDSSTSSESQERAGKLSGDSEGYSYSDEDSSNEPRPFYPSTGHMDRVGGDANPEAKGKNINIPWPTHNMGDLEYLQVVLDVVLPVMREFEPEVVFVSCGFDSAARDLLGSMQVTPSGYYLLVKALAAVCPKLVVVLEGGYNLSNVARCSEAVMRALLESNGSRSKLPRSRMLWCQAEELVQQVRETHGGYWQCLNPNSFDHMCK
UniProt Q57ZF2: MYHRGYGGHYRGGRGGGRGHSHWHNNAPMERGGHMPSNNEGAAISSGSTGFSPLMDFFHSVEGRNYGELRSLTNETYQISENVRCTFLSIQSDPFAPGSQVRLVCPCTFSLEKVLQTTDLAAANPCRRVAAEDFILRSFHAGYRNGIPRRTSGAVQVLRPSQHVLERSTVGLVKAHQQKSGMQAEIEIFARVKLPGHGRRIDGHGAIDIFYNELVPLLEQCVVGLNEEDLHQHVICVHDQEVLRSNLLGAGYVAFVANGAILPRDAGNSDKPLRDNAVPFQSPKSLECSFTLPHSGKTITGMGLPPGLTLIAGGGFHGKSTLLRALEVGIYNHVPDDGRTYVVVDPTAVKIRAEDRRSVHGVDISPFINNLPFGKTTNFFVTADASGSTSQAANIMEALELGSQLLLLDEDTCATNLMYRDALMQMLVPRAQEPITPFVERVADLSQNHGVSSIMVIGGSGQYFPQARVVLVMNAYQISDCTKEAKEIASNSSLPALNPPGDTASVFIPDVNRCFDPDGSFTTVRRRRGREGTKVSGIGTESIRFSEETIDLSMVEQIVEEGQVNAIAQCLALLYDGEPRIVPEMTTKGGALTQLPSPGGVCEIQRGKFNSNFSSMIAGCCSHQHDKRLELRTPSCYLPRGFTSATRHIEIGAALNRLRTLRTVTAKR
UniProt O96971: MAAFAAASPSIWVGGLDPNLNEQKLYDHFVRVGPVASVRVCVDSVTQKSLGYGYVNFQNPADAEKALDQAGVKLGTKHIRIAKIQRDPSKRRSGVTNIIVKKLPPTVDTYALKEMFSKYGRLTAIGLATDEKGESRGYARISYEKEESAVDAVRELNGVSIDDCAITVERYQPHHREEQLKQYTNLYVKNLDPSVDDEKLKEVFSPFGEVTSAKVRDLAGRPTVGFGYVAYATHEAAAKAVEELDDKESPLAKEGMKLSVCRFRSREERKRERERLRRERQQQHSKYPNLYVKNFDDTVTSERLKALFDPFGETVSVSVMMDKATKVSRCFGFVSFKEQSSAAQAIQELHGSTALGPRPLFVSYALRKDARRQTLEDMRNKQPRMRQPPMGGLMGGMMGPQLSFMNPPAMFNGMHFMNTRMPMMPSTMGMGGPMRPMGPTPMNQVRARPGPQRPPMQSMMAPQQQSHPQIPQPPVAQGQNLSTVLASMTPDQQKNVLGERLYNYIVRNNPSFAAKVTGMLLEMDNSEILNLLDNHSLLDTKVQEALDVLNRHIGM
UniProt Q38BZ3: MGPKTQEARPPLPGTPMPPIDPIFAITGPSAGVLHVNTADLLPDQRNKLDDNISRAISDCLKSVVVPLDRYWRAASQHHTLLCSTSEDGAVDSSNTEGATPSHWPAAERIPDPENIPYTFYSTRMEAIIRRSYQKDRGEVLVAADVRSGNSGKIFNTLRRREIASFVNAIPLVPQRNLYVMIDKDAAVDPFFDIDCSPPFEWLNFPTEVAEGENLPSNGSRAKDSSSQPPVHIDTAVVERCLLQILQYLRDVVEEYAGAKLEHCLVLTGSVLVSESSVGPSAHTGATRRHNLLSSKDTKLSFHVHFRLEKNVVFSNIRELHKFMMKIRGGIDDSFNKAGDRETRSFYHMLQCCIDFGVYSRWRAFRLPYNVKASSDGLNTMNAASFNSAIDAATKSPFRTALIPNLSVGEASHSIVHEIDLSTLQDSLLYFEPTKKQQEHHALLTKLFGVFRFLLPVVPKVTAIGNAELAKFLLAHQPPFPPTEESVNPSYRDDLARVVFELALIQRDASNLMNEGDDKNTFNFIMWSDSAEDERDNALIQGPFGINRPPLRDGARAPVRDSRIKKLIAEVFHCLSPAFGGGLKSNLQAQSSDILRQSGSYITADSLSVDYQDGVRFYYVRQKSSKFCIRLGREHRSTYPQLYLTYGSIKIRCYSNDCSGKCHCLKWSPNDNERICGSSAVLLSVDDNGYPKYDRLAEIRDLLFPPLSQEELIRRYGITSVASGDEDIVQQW
UniProt Q384B5: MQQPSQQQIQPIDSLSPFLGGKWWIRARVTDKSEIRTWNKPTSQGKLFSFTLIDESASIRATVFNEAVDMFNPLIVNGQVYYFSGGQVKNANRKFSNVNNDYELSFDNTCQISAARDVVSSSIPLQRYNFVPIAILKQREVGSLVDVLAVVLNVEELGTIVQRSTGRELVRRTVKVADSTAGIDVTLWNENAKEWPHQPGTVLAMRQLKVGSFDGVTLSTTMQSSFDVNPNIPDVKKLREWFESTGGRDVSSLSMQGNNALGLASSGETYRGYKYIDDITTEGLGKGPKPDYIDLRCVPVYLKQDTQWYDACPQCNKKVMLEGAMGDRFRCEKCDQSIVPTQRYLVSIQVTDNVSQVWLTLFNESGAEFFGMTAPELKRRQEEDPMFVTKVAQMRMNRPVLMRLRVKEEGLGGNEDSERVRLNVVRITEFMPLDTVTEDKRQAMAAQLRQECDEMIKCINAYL
UniProt Q38DK0: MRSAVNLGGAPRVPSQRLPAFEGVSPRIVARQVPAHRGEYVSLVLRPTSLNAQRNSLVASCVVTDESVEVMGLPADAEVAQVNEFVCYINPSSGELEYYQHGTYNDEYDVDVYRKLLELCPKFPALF
UniProt Q57XY9: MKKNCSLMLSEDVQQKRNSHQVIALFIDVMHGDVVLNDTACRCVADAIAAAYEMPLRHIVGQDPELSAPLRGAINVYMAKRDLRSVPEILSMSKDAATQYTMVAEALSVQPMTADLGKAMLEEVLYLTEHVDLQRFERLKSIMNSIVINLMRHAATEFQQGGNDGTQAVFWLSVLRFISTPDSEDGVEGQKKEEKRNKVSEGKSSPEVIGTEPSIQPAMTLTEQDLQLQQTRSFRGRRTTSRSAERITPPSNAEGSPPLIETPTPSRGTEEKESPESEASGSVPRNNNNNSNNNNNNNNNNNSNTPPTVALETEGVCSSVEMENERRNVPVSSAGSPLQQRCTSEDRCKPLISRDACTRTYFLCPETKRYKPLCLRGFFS
UniProt Q383U2: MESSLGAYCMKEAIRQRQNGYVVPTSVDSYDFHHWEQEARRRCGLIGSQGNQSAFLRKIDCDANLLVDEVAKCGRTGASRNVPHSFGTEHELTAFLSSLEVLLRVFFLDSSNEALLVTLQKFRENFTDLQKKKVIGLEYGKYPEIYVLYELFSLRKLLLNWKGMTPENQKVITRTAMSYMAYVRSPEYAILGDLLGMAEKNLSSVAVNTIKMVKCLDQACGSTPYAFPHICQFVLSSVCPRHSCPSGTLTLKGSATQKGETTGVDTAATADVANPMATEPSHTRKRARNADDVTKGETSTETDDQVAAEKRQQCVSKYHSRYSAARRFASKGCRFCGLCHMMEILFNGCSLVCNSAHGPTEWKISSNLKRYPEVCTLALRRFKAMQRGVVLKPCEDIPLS
UniProt Q586Z9: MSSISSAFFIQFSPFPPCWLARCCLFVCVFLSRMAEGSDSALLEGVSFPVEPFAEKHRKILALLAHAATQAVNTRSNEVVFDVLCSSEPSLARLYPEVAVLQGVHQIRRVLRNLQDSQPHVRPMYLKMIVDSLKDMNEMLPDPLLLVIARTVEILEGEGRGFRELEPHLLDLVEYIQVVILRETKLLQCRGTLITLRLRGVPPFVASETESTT
UniProt Q388B3: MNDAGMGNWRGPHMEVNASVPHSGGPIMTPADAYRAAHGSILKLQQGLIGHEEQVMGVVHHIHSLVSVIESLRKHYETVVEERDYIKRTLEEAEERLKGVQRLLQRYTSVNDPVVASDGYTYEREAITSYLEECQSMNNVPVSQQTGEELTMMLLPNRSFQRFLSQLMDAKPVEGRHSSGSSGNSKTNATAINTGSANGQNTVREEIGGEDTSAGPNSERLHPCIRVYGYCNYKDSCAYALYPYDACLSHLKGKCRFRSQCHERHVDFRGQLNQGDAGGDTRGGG
UniProt Q388B1: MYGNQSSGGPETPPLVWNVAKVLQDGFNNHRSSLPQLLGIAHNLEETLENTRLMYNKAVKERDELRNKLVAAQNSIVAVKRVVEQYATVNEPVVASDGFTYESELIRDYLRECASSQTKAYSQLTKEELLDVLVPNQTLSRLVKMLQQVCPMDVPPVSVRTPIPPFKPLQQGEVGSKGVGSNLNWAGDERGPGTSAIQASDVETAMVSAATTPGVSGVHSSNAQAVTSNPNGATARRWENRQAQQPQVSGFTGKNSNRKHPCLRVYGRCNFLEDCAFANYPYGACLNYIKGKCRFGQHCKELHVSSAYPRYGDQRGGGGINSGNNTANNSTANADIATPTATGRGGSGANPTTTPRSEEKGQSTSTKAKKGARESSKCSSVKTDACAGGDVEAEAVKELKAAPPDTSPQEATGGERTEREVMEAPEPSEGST

Results are given in words; binding and its absence hold for the method and conditions named. Binding seen in cells or lysates may run through a third protein. Here binding means that the protein was enriched with, or labelled near, the bait; the list need not be complete. No binding means not detected with the bait. Tags and fused reporters may be left off the sequences shown.

Take HDAC3 (from UniProt Q586J9): the binding result is “binds”.

MRB1590 (from UniProt Q57ZF2): the binding entry is given as “binds”. As to PABP2 (from UniProt O96971), the binding result is given as “binds”. With “PPL2 (PrimPol-Like protein 2) (from UniProt Q38BZ3)”, the binding entry is “binds”. On to PolQ/PolIE, for which the binding entry is recorded as “binds”. For RPA1 (from UniProt Q384B5) the value was “no binding”; for RPA3 (from UniProt Q38DK0), “no binding”; for TIF2 (from UniProt Q57XY9), “binds”.

With TelAP1 (from UniProt Q383U2), the binding entry is reported as “binds”. For TelAP2 (from UniProt Q586Z9), the binding entry was “binds”.

Turning to TelAP3, the binding entry is “binds”. Consider ZC3H39 (from UniProt Q388B3), for which the binding result was “binds”. On to ZC3H40 (from UniProt Q388B1), for which the binding result is “binds”.

B1: RAP1 (protein, UniProt C1JEX5 1-855)
chain: MTDVDGGSGASWKRLRFFVCADTLLTFQPVDSSHLEGRPGQPEQRYLLVDGEYRPITSYPTSSLFLETLKLAGSTVVVIAPWKRAKTKKLLSLFGWTAFDEIRSIHPEPGRDKLHLACIGCSADEYSTSVIVATSRADWSPSMYPQLVEVKHGVNQVPHSLALLRALSSCLRLAEWQVRLPHVPISSCATLCRSRLFSHCRFFLEPVASEDATVALSINEHGGYIVTRREDATHCVVSGSLPNLPGDISNLPPGGCAAKAVKECSVLPTSAEGRSAEPKSAKVDTDSVSLVKNQVDESDDSIKDEFSYSAGNAATAMVECGDEGVWNEENADDEDPVTMIPPGTFSEDDEDDAPGGLEEADGETVTTVTTQWLKDCAEGLFMYPPQVSHTSKDGSDWNITGLLLATILPTSDAEPLLLSSFNTFAERSGFEPLQLNSADEGGLAEVMQRQWGGVLCMEEKDGDFLLSQTNIYTEAFSDEMDKHLTFVANRFCEAWKDAVQRRRALLGSDAGTQTTVSITVTFGTNTEVEVAPSVQPPPPPPPAPQPTTASAAANEGSKESATPALPFLMRALGPAEWAKEVEAPRSPPPSAVPDIPLKQDPVPSGEGVATAENSVGNDQKESTSRQVAGDAGDTANVAEATEEIAALDQPFEKCFIPTEALGSDREGLDRTQLERQLPFRNYPIKLNVSKSGIFCQFPTVSDAKRFYEEGTVEILNRSLPIKPVFEKRNETVAPAERKRRRSVSPGGVHPQTAAVSALSRRGIQGATYARTQRSRTDNGWKAEGDRNPFVLTEEENSLLTSLGITYTYALENVPLLEHYAQKDLSSKVYRKEKGVLVKMLEKLKAVKGTTSKAPQ
For B1, the binding result was “binds”.
